Test results reported in patent publication US20220257550A1, “REDUCING THE VIRAL ACTIVITY OF ELAFIBRANOR WITH RIBOFLAVIN OR DHA” (priority 2019, published 2022).
For at least one compound, name, drawing or mass did not settle the structure.

System: Phage T4
Assay: Phage T4 titer in liquid culture of E. coli followed by plaque assay on agar plates (PFU)
Format: cell-based, bacteriophage T4 / E. coli 613
Conditions: compounds 0.02 mg/ml (each), vs untreated control, FIG. 1
Method: (§1) The number of phage particles (PFU) is given. Experiment were done in triplicate.
as §1
Nutritional Products Ltd (Kaiseraugst, Switzerland). All stock solutions were in 20 mg/ml DMSO. All compounds were used at a final concentration of 0.02 mg/ml.
E. coli was grown in liquid LB (lysogeny broth) medium. […] The number of phage particles (PFU) was determined by plating on agar.

Which “phage T4 PFU (number of phage particles)” value (MOI of 0.01, 3 hours at 30° C.) does the source give for `CC/C=C\C/C=C\C/C=C\C/C=C\C/C=C\C/C=C\CCC(=O)O` [DHA, Docosahexaenoic acid] here?
The value was “decreased”.

What about the “phage T4 PFU (number of phage particles)” value (MOI of 100/1) of the same molecule?
The value was “decreased”.
